Reference: patent US20050202535A1
Results are given in words; binding and its absence hold for the method and conditions named. Some binding calls cover weakened binding; strength is not graded here.

Protein sequences, listed by entry. Tags and fused reporters are not part of them. Lines headed by an entry give the natural chain unless they say otherwise; changes in a name come on top. Chains listed by the source or under a name are the forms on record and can include a tag or linker.
VegF (vascular endothelial growth factor; PeproTech), biotinylated (P15692, form named): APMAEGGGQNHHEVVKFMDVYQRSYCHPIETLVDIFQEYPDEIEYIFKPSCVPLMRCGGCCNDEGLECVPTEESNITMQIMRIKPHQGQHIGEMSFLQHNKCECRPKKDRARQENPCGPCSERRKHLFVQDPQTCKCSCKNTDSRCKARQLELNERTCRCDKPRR

B1: 2BBIck81 (Bowman-Birk inhibitor with the VegF binding peptide CK37281 in the chymotrypsin inhibitory loop), free form released from the BCE103-lnk2-2BBIck81 … (designed binder)
chain: DDESSKPCCDQCACTKSNPPQCRCSDMRLNSCHSACKSCACYNLYGWTCFCVDITDFCYEPCKPSEDDKEN
B2: 1BBIck81 (Bowman-Birk inhibitor with the VegF binding peptide CK37281 in the trypsin inhibitory loop) (designed binder)
chain: DDESSKPCCDQCACYNLYGWTCRCSDMRLNSCHSACKSCICALSYPAQCFCVDITDFCYEPCKPSEDDKEN

Molecular target: VegF (vascular endothelial growth factor; PeproTech), biotinylated (UniProt P15692)
Test: ECL competition assay (BioVeris), competitor Anti-VegF antibody

Row | Binder | binding
1 | B1 | binds
2 | ACYNLYGWTC [synthesized CK37281 peptide (VegF binding peptide CK37281)] | binds
3 | B2 | binds
